Results from patent US20210206832A1.
Results are given in words; binding and its absence hold for the method and conditions named. Some binding calls cover weakened binding; strength is not graded here.

Experiments:
[1] = biological target: recombinant VEGF MiniTrap (dimer) MT5 (human); assay: affinity chromatography ligands
[2] = biological target: recombinant VEGF MiniTrap (dimer) MT5 (human); assay: affinity chromatography, capture and low pH elution

binding [1]: binds
binding [2]: binds
B1: mAb4 (a mouse anti-VEGFR1 mAb mouse IgG1) (antibody, V domains shown)
VH: EVQLVESGGDLVKPGGSLKLSCAASGFTFSDSGMSWVRQTPDKRLEWVATISSGGGYTYYSDSVEGRFTISRDNANNTLFLQMSSLKSEDTAMFYCARLGNYGGYYGMDYWGQGTSVTVSS
VL: DIQMTQSPSSLSASLGGKVTITCKTSQDSNKYIAWYQHKPGKGPRLLIHYTSTLQPGIPSRFSGSGSGRDYSFSISNLEPEDIATYYCLQYDNLWTFGGGTKLEIKR
